PMC3229538, “Inhibition of G Protein-Activated Inwardly Rectifying K^+ Channels by Different Classes of Antidepressants” (PLoS ONE, 2011)
Structures can show the parent of a compound that is named as a salt.

What was measured:
GIRK1/4 channels = target: T1, GIRK1/4 channels (Mus musculus, UniProt P48545+P63250); test: Inhibition of basal GIRK currents, Xenopus oocyte expression assay, two-electrode voltage clamp; type: cell-based; conditions: for EC50: basal GIRK currents, −70 mV, hK solution 96 mM K+
T1 construct: expressed in transfected cells; host or cells: Xenopus laevis oocytes injected with in vitro transcribed mRNA
T1 sequence (P63250 1-501): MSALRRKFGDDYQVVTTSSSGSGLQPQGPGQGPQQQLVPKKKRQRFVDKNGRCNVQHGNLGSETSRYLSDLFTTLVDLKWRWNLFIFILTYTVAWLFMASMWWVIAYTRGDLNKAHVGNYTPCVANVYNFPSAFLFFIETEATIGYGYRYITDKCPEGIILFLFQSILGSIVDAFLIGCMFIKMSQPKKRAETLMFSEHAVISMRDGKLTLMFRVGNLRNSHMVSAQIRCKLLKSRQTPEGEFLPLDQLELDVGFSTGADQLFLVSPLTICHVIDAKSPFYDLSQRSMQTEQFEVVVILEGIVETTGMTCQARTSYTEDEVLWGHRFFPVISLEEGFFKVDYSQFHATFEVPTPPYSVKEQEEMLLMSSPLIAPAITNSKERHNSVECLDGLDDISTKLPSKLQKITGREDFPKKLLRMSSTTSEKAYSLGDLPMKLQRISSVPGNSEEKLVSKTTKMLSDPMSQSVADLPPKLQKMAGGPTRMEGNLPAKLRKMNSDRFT
T1 sequence (P48545 1-419): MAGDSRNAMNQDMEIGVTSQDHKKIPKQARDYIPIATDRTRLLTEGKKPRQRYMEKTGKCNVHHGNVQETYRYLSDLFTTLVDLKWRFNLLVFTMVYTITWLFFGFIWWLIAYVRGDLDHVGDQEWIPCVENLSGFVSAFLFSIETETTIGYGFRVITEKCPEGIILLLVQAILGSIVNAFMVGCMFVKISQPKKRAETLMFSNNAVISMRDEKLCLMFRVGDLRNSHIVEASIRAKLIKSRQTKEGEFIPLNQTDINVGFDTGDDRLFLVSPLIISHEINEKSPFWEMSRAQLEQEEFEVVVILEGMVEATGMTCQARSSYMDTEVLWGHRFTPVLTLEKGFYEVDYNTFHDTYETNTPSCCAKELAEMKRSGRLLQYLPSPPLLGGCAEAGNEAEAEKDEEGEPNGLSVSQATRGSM
Method: (§1) Microelectrodes were filled with 3 M KCl. […] The data are expressed as mean ± SEM, and n is the number of oocytes tested. The statistical analysis of differences between groups was performed using paired t-test, one-way analysis of variance (ANOVA), or two-way ANOVA followed by the Tukey-Kramer post hoc test. Values of P<0.05 were considered statistically significant.

GIRK1/2 channels = target: T2, GIRK1/2 channels (Mus musculus, UniProt P48542+P63250); test: as above; type: cell-based; conditions: for EC50: basal GIRK currents, −70 mV, hK solution 96 mM K+; for IC50: concentration reducing basal GIRK currents by 50%
T2 construct: expressed in transfected cells; host or cells: Xenopus laevis oocytes injected with in vitro transcribed mRNA
T2 sequence (P63250 1-501): T1 sequence (P63250 1-501)
T2 sequence (P48542 1-425): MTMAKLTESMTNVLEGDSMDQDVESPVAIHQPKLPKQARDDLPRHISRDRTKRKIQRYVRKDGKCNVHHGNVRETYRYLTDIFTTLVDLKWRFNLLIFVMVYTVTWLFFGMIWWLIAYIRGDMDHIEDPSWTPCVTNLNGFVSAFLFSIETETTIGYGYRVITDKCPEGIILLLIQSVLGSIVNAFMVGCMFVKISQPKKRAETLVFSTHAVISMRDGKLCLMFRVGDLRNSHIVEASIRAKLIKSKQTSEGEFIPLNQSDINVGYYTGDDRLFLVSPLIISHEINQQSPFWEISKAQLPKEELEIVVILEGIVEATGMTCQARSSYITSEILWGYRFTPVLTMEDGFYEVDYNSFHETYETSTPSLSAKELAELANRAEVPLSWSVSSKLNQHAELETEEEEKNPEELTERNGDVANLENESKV
Method: as §1

[1] = target: GIRK1/2 channels activated by ethanol (Mus musculus, UniProt P48542+P63250); test: cell-based
[2] = target: T3, GIRK1/2 channels activated by GTPγS (Mus musculus, UniProt P48542+P63250); test: Inhibition of total GIRK currents (GTPγS-induced and basal) in GTPγS-injected oocytes; type: cell-based
T3 construct: expressed in transfected cells; host or cells: Xenopus laevis oocytes injected with in vitro transcribed mRNA
T3 sequence (P63250 1-501): T1 sequence (P63250 1-501)
T3 sequence (P48542 1-425): T2 sequence (P48542 1-425)
From the text: Microelectrodes were filled with 3 M KCl. […] GIRK channels are activated by various Gi/o-protein-coupled receptors through the direct action of G-protein βγ subunits released from the heterotrimeric G-protein complex, [33].

EC50 (GIRK1/4 channels)	EC50 (GIRK1/2 channels)	IC50 (GIRK1/2 channels)	IC50 [1]	IC50 (GIRK1/4 channels; concentration reducing basal GIRK currents by 50%)	IC50 [2]	Structure (SMILES)
17.7 ± 4.4 µM	38.7 ± 6.2 µM	181 ± 48.3 µM	–	–	–	Clc1ccc2c(c1)C(N1CCNCC1)=Nc1ccccc1O2 [amoxapine, Amoxapine]
12.6 ± 2.5 µM	11.7 ± 1 µM	29.1 ± 3.4 µM	29.6 ± 5.5 µM	36.7 ± 7.8 µM	18.1 ± 3 µM	CN[C@H]1CC[C@@H](c2ccc(Cl)c(Cl)c2)c2ccccc21 [sertraline, Sertraline hydrochloride]
